# Reference: patent US8956838B2, “Carboxyl esterase polypeptides” (B.R.A.I.N., priority 2006, dated 2015)
# What was measured:
# [1] = Determination of pH optimum by titration; type: biochemical; details: tributyrin 2 mM, 37° C., range pH 4 to 11
# Procedure: The pH optimum for the enzymes was determined using tributyrin as substrate. The incubation conditions were 20 ml buffer (2.5 mM phosphate buffer [pH 4-7], 2.5 mM Tris/HCl buffer [pH 7-11] or 2.5 mM glycine buffer [pH 9-11], supplemented with 100 mM NaCl) stirred at a constant temperature of 37° C. The esterase substrate tributyrin (final concentration of 2 mM) was added to 5 ml of the corresponding buffer at 37° C., emulsified and added to the whole preparation. This substrate emulsion was held constant at the correct pH automatically by the titrator (718 STAT Titrino; Metrohm, Herisau, Switzerland) for 2 min and this served as the control. […]
# [2] = Determination of temperature optimum; type: biochemical; details: pNP-caproate, tested 25° C. to 70° C.
Molecule,pH below which no activity [1] [pH],pH of highest activity [1] [pH],temperature of maximum activity [2] [°C]
"EstCL1: recombinant enzyme having carboxyl esterase activity, amino acid sequence SEQ ID NO: 6, family IV of bacterial lipolytic enzymes (protein, metagenomic sequence) MTDPYVRPDVAMFLAFLNNAPGPKLHELSAPEARMVQNAMRDMADAPVGELAVMRDLEIPGPAGTIMARLYDKQPGRGSGPAMVFFHGGGFVIGNIHTYEPFCAEVARLLDLPVISVEYRLGPESPFPAAFEDCEAAARWVASKPEALGFDVSGLILSGDSAGGNLTISTSMALRDVAAGVPVIAQMPIYPVVTLDPDWPSMRDFADGYLLTAELIQWFGDGHGASGEDYRTHPLDFDQSGMPPTVITTASLDPLRDQGMAYFEKLKAAGVRAEHISAEGNIHGHINVRKGIPSSQQDVEGYVTALTAMLAGVMAEA",6,8,
"EstCE1: recombinant enzyme having carboxyl esterase activity, amino acid sequence SEQ ID NO: 4, family VIII of bacterial lipolytic enzymes (protein, metagenomic sequence) MSIADQSLAKRVQGVSQQAIDEGRIVGSVVLIARHGRVIYANASGYADREQKKPMVRETQFRLSSVSKPYITLAAMRMIEQQKLGLDDTVSRWLPWFTPALADGVRPPIKIRHLLSHTAGLDYRLSQPAEGPYHRLGIKDGMELSSLTLEQNLRLLAQADLLAEPGSEFRYSLAIDVLGAVLEQVAGEPLPQVFNHWVAQPLGLRNTGFYTTDVDNLATAYHDTAAEPEPIRDGMLLTLPEGFGFEIELAPSRALDAQAYPSGGAGMVGDADDVLQLVETLRTGKEGILQPATAALMRQAHVGSHAETQGPGWGFGFGGAVLEDAQLAATPQHNGTLQWGGVYGHSWFYDPQAAISVVALTNTAFEGMSGRYPLQIRDAVYGTNEPTR",5,10,50
"EstA3: recombinant enzyme having carboxyl esterase activity, amino acid sequence SEQ ID NO: 2, family VIII of bacterial lipolytic enzymes (protein, metagenomic sequence) MSAEELGFLPDRLARISDHIQTNYLDNGKLPFASLLIGRGDDIALQWSSGVADDAIFRIASMTKPVTSVAFMQLVEQGKVALTDPVAKYIPEFAKLGVFVAGGGNIPFVSRPPTMPMRIVDVLRHTTGFTYSFQERSNIDAAYRKTDVESWTRSTSQSFIDTLAEIPLEFDPGTQWNYSVSTDVLGILIERISGQSLPDYFRDHIFAPLGMVDTCFTVPADKAARIPQCFAFDPATKMKLFDEAGASSLWTKGWSFNSGGGGLASSVADYHRFCRMLLNGGALDGIQIISPKTLELMTANHLPGGQDLTQMSKSLFSEAEMAGIGFGLGFATTIDSVATLTPCSTGDFYWGGMYSTAFFVDPVEDIIMIFMTQLMPSSTYPVRREIKTMIYSALAA",4,9,47
